We go through one substance from article PMC5764988.

Sequences of proteins named here, by UniProt entry; tags and fusion partners are left off. Residues count along the entry.
UniProt Q9HVT2, residues 38-1516: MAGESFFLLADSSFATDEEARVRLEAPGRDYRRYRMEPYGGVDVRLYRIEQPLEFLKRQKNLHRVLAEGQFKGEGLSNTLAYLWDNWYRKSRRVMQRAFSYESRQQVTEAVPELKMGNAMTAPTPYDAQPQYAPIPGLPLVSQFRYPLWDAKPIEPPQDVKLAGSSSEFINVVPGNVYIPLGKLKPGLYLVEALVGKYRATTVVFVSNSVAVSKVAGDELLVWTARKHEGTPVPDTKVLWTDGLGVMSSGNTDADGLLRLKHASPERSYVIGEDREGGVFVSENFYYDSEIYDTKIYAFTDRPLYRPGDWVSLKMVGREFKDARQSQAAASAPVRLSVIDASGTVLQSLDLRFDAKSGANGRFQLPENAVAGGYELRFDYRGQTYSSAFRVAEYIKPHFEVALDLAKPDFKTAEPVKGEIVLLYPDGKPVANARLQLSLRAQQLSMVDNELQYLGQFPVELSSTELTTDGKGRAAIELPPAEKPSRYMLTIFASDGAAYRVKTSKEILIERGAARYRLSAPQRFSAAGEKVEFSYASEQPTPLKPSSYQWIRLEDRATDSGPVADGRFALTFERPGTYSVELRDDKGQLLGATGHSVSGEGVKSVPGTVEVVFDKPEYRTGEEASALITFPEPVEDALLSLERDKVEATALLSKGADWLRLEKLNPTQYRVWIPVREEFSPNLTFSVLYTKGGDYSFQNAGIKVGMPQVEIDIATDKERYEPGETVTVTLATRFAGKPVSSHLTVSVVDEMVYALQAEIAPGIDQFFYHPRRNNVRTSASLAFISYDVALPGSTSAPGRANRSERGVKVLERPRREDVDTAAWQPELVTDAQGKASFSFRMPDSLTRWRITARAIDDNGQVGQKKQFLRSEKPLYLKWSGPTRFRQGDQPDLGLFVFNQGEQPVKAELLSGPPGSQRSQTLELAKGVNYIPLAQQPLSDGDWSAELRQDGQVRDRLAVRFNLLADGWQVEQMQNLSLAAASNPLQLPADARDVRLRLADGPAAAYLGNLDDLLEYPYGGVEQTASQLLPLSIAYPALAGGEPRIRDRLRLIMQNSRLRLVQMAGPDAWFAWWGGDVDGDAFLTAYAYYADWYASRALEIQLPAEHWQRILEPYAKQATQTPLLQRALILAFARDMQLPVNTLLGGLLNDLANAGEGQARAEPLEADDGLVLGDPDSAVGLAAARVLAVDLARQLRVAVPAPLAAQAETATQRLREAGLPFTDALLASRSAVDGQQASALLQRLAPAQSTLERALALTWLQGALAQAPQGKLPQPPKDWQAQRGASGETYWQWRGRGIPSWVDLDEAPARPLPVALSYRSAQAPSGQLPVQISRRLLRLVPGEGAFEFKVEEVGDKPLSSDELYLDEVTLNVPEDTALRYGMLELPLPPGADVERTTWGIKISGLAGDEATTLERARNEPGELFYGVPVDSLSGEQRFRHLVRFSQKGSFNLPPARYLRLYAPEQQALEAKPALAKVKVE
UniProt Q9HVT1, residues 22-212: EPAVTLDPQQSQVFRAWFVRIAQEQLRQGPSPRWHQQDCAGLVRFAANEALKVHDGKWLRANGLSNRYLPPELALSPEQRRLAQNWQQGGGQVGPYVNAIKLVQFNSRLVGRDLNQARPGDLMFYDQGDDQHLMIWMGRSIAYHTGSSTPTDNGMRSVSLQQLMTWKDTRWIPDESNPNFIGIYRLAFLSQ

The target of this assay is MagD, the Type II alpha-2-macroglobulin from Pseudomonas aeruginosa (Pseudomonas aeruginosa) (UniProt Q9HVT2). Nature of the assay: SEC; MagD co-expressed with one other Mag protein in E. coli BL21 Star; co-purification by Ni-NTA and gel filtration (Superdex S200, 25 mM HEPES pH 7.5, 100 mM NaCl, 4 °C); both chains His6-tagged. For orientation: SEC sorts molecules by how far they enter the pores of the column.

No constants are given. Whether binding was seen depends on the method and setting.

In the case of MagC (from UniProt Q9HVT1 22-212), the binding entry was “no binding”.
